# According to publication PMC7819943, “Rice protein-binding microarrays: a tool to detect cis-acting elements near promoter regions in rice”:
# The chains behind the UniProt entries cited, without tags or fusion partners.
# UniProt Q0JBA9, entry or part of it: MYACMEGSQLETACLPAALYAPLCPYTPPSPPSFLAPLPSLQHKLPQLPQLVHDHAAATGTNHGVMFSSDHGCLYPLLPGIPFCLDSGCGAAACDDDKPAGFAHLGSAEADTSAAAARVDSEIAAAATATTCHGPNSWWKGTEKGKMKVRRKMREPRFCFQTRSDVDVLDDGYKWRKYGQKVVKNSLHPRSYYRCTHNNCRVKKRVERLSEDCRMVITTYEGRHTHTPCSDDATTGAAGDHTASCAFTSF
# This is one part of the list.
# Biological target: OsWRKY34 (Oryza sativa, UniProt Q0JBA9 1-250)
# Assay: protein-binding microarray (RPBM); PBS, 2% BSA, 51.3 ng/ul salmon testes DNA, 50 uM zinc acetate, 200 nM TF, 25 C, 1 h; high values mean tight binding
# Conditions: protein: recombinant; tags: N-terminal polyhistidine and DsRed monomer fusion (pET32a); label: CyDye5-dUTP incorporated in the synthesized complementary strand; 3' TTTTT single-stranded linker to array surface; dsDNA, one strand shown
# Method in brief: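 Binding signal is reported as fluorescence intensity per feature (arbitrary units) from an Axon 4000B scanner. Incubation used 200 nM of each Ni–NTA-purified, N-terminally polyhistidine- and DsRed-fused transcription factor from E. coli BL21-CodonPlus on a double-stranded custom Agilent array for 1 h at 25 °C, with 50 µM zinc acetate in the buffer, followed by washing.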
row,Sequence,binding signal
1,TAAATCACTCACGGAAGTTTGTCGCTATTCTTCTAGTCAACGGAGTCACCTAGTGCAG,9330 fluorescence intensity (a.u.)
2,GCCCAGCCCAGCCCGCTCTTCGTTTCCTCTCTAGTGACTTCGGAGTCACCTAGTGCAG,9510 fluorescence intensity (a.u.)
3,TCCATCCACCTCCACCTCCTCGCGGTTTCCATCCCGCGAACGGAGTCACCTAGTGCAG,8740 fluorescence intensity (a.u.)
4,GTAATCTTCATCTTAATTACACCTCGTCACCTCGTCTTAACGGAGTCACCTAGTGCAG,8340 fluorescence intensity (a.u.)
5,CCTCATCACCATACTCAACCCAGTCACCCGCACCGTTCTCCGGAGTCACCTAGTGCAG,13400 fluorescence intensity (a.u.)
6,ATGACCGTTTATTTTGTTGTAATCTCACGTATAGCTTGCTCGGAGTCACCTAGTGCAG,11200 fluorescence intensity (a.u.)
7,TGGTGGTGGTTGTGGTTGGGTTGGTGTCTGTCTTTTGTACCGGAGTCACCTAGTGCAG,16300 fluorescence intensity (a.u.)
8,GATCATCACACAAGAAACCACACCGCAAACCATGTCATCCCGGAGTCACCTAGTGCAG,8540 fluorescence intensity (a.u.)
9,CGTCTTTTCTCCTTGTCTTGCTAGCCATATCAACGGAAGGCGGAGTCACCTAGTGCAG,8080 fluorescence intensity (a.u.)
10,GATATAGCCGAAAGTATCCATCCTTTTTATAGCCTTTGTACGGAGTCACCTAGTGCAG,10600 fluorescence intensity (a.u.)
11,TGCCGGTGCTCCCAACTCTTTCCTCGCTCCCCACGCTAGCCGGAGTCACCTAGTGCAG,8230 fluorescence intensity (a.u.)
12,CCACTCAGCCTACCGCGTGTTCTGCTGCCCGACATGGCCACGGAGTCACCTAGTGCAG,8950 fluorescence intensity (a.u.)
13,GATCGCTCCGTTTTTCATGTGCACGAGATTTGTTCCCATCCGGAGTCACCTAGTGCAG,9190 fluorescence intensity (a.u.)
14,TAGTCCTCATCTTCTCGTGTATCTTTGGTTTTCTTCCCATCGGAGTCACCTAGTGCAG,8930 fluorescence intensity (a.u.)
15,CTAGAAGGTGACTTTTCCAACTCAACTCTCGTTTTTTCACCGGAGTCACCTAGTGCAG,11500 fluorescence intensity (a.u.)
16,GGCAACGAGGAGCCCGCGTCATATCGTCGCCATCTTGACGCGGAGTCACCTAGTGCAG,10900 fluorescence intensity (a.u.)
17,ACCCATCCATCCCGTGAGGCCGTGATCCAGCTCTTGTTTCCGGAGTCACCTAGTGCAG,11100 fluorescence intensity (a.u.)
18,ATTCATTACACCATGTTTCTTTCTTTCTTTCGAGGACCCTCGGAGTCACCTAGTGCAG,8370 fluorescence intensity (a.u.)
19,TCCCCGACCGAGCTAGCGTCCGCTTCACTCACCTCGTCGTCGGAGTCACCTAGTGCAG,9500 fluorescence intensity (a.u.)
20,GCCTTAGTAATTTTGGTAAACTAATTGTTGATGTCATGTTCGGAGTCACCTAGTGCAG,9320 fluorescence intensity (a.u.)
21,TTAATCTGTCATTAGCAAATATTTACTGTAGCATCATATTCGGAGTCACCTAGTGCAG,8270 fluorescence intensity (a.u.)

row,Sequence,binding signal
1,AATTCTCTCTCTCTACAGTCTAACACACATGCTGACAAAGCGGAGTCACCTAGTGCAG,8270 fluorescence intensity (a.u.)
2,AATCCTACATGCCAAATCACCTCATCTTATCTCATCTATTCGGAGTCACCTAGTGCAG,9800 fluorescence intensity (a.u.)
3,TACTGTTTTGCCTGGTAGATCCCTTTCGTTTGGCTGCAGACGGAGTCACCTAGTGCAG,10900 fluorescence intensity (a.u.)
4,GCGTCGGGACTCCATTTTTTTTTCCCCGTGAGAAATTTCCCGGAGTCACCTAGTGCAG,9300 fluorescence intensity (a.u.)
5,ATTGGCCGCTCCGCCCGTTCCCGCCACGCTCGCCGCGACGCGGAGTCACCTAGTGCAG,8220 fluorescence intensity (a.u.)
6,TAAGGGATCTCGCATGTCTGGTTTTGTGGTTCGAGGATGACGGAGTCACCTAGTGCAG,8710 fluorescence intensity (a.u.)
7,CTCCAGCTCTCGCCTCTCGCCTCGTCCTTGTTCGTCATCGCGGAGTCACCTAGTGCAG,8370 fluorescence intensity (a.u.)
8,TGTTGCTGCCTGGAGCTCAGGCGATCGATTTCGGTCGCCTCGGAGTCACCTAGTGCAG,8200 fluorescence intensity (a.u.)
9,ATCAACATCTTTTCGTTGCACCTTTCTTGACTCTTTATGCCGGAGTCACCTAGTGCAG,10900 fluorescence intensity (a.u.)
10,CCGTCATCATGCACCAGTTTCTTTGCTAAATGTTCTTTGCCGGAGTCACCTAGTGCAG,8330 fluorescence intensity (a.u.)
11,CTCACGTCACCTCCGCCGTCATCTGGTTCAAGCCCTATTTCGGAGTCACCTAGTGCAG,12600 fluorescence intensity (a.u.)
12,GACCTCCTTTTTCACGGGGCCGGGGACGGTGAGAAGCGTCCGGAGTCACCTAGTGCAG,8610 fluorescence intensity (a.u.)
13,TCCTGTTCGCTTTTCTGTTAGATCAAAAGCGATGTTTCTTCGGAGTCACCTAGTGCAG,8500 fluorescence intensity (a.u.)
14,CAGGCTGCCCAGCTCTGACATGTCGTCCTCACTTGCCGCCCGGAGTCACCTAGTGCAG,10100 fluorescence intensity (a.u.)
15,AACCCTCACTCTCAGCATTGTTAAGCTCAGGATTTGGCCACGGAGTCACCTAGTGCAG,10100 fluorescence intensity (a.u.)
16,TCGACTGCTGACCTGATTTTTCTCACAAGATTGTTTCGACCGGAGTCACCTAGTGCAG,9430 fluorescence intensity (a.u.)
17,AAATCATCCACTCTCATATTATCTAATTCTATTGGATGCACGGAGTCACCTAGTGCAG,8680 fluorescence intensity (a.u.)
18,ATTTTGTGTTTTTGTGGTGGTAATATTGTTTTTGAGTTCTCGGAGTCACCTAGTGCAG,9700 fluorescence intensity (a.u.)
19,TTAACACGGACACGCCACACTCTGACCACAGCTCACATTCCGGAGTCACCTAGTGCAG,9190 fluorescence intensity (a.u.)
20,GCGGTGGCGGTTGGGGTGGCGAGTGGGGAGGAGGAGGCGGCGGAGTCACCTAGTGCAG,18900 fluorescence intensity (a.u.)
21,AGGAGGGCGGGGTCGTCGTCGTCCGGGGTGGTGGTGGCCGCGGAGTCACCTAGTGCAG,17000 fluorescence intensity (a.u.)

row,Sequence,binding signal
1,CGCGCCGACCAGCCGCCATCATTCCGTGTCGCCCTGCACGCGGAGTCACCTAGTGCAG,8260 fluorescence intensity (a.u.)
2,CCTCACCCACCCATCACACACGCAAAACCACCGTCGTATCCGGAGTCACCTAGTGCAG,8290 fluorescence intensity (a.u.)
3,CTCTGCCGCGATCTCTCTCTCTCTCTCTCTCCTCCCATCCCGGAGTCACCTAGTGCAG,10400 fluorescence intensity (a.u.)
4,GCATTGTTTTTATTTAGCCTGTTTAATATTATAGCCAACTCGGAGTCACCTAGTGCAG,8720 fluorescence intensity (a.u.)
5,TATTACTCCCTTCGTATTTTAATGTATGACGCCGTTGACTCGGAGTCACCTAGTGCAG,8820 fluorescence intensity (a.u.)
6,CACCAGCTTATACTCTCTCTCTCTCTCTCTCTCTCGTCGACGGAGTCACCTAGTGCAG,11000 fluorescence intensity (a.u.)
7,CTTTTTATTTCCTCTCTCTCCCTTATCCTCTCTTCTCTCACGGAGTCACCTAGTGCAG,8730 fluorescence intensity (a.u.)
8,GAAGCTAGTAGGTGTTAGTGGGAGGGAGGGGCCAAGAATGCGGAGTCACCTAGTGCAG,11500 fluorescence intensity (a.u.)
9,CCGCTGCTCCACCTGCGCCGCCGTCCTGTCGTCCCCGAAGCGGAGTCACCTAGTGCAG,8230 fluorescence intensity (a.u.)
10,TCTCCATCGTATTATAAGTCGTTTGACTTTTTTACTAGTCCGGAGTCACCTAGTGCAG,14700 fluorescence intensity (a.u.)
11,TACAGCATCCTCATCCTCTTTCTACTACTATTGATCTTCTCGGAGTCACCTAGTGCAG,11200 fluorescence intensity (a.u.)
12,AGTAATTTTTCTTCCGCTTAGCCAAATTGTCACCACTTAACGGAGTCACCTAGTGCAG,9040 fluorescence intensity (a.u.)
13,CACCATCAGCACGTAGAACTCCACCTTGCTCAACGCGTTGCGGAGTCACCTAGTGCAG,8610 fluorescence intensity (a.u.)
14,TCTCCATCCTACGGCCGCATTGTGATACCCTACTACGTCCCGGAGTCACCTAGTGCAG,10300 fluorescence intensity (a.u.)
15,TCCCTGGTATATGCACGCGCCCGCGTTCGTGCCGACGCGTCGGAGTCACCTAGTGCAG,12800 fluorescence intensity (a.u.)
16,CCCACGCGCCCACTTTGACCGACCCATCGATCGATCACGACGGAGTCACCTAGTGCAG,14300 fluorescence intensity (a.u.)
17,TTCCTTCTTATTTTTCTGGCCCCAAACCAGTGTTTAACAACGGAGTCACCTAGTGCAG,10500 fluorescence intensity (a.u.)
18,AGGGCCTATATGTTAGACTTAATCTTGTCGTTTGTGTTTTCGGAGTCACCTAGTGCAG,13200 fluorescence intensity (a.u.)
19,GTCCTGTCGAGCCCGACCCATCATCCACACGCGCCATTGTCGGAGTCACCTAGTGCAG,9680 fluorescence intensity (a.u.)
20,AAAAATATCTTCACCTATTATAACGCACATTTATTTTTTTCGGAGTCACCTAGTGCAG,9710 fluorescence intensity (a.u.)
21,GCGCTCACCGCCTTCTGTGCCGCCTCACTTGCGCCGGCGACGGAGTCACCTAGTGCAG,11500 fluorescence intensity (a.u.)

# As entered above.
# In binding signal, TTCCTTCTTATTTTTCTGGCCCCAAACCAGTGTTTAACAACGGAGTCACCTAGTGCAG reads 10500 fluorescence intensity (a.u.)
# In binding signal, GTCCTGTCGAGCCCGACCCATCATCCACACGCGCCATTGTCGGAGTCACCTAGTGCAG reads 9680 fluorescence intensity (a.u.)
# In binding signal, CTCTGCCGCGATCTCTCTCTCTCTCTCTCTCCTCCCATCCCGGAGTCACCTAGTGCAG reads 10400 fluorescence intensity (a.u.)

# More entries.

row,Sequence,binding signal
1,GTCAACCCGAGACCCCGAGACCATCGATCCCGCGCCGTCCCGGAGTCACCTAGTGCAG,9500 fluorescence intensity (a.u.)
2,AATATGACCGACTACTCTACCAGTCAATCCAATCCATCAACGGAGTCACCTAGTGCAG,8110 fluorescence intensity (a.u.)
3,GCCCTAGTGGAGGGCGGCATGGTCTATTTTTGTAATTTTTCGGAGTCACCTAGTGCAG,10000 fluorescence intensity (a.u.)
4,CCATTGTTCCGATTGCCGTCTCTTGTTGCATGTGCATTCCCGGAGTCACCTAGTGCAG,10200 fluorescence intensity (a.u.)
5,AGCTCGCGGATTGGGTGGTGGTGGTGGTGGAGCCCGGAGTCGGAGTCACCTAGTGCAG,9240 fluorescence intensity (a.u.)
6,CTATTGTCTTGTTCATCTGTTTTTCTTGTTAACAACCATTCGGAGTCACCTAGTGCAG,13000 fluorescence intensity (a.u.)
7,CACCACCGTTTTGACTCCTCTCAGACACACAAGCTGCAGGCGGAGTCACCTAGTGCAG,8160 fluorescence intensity (a.u.)
8,ATGTTTCACTCATTGGTCAACTAGAACATTTGACCAACCACGGAGTCACCTAGTGCAG,15000 fluorescence intensity (a.u.)
9,ACATCGTCCCATCAACGCTGCGACGCCACCATTTAATTCCCGGAGTCACCTAGTGCAG,12500 fluorescence intensity (a.u.)
10,GTGTCTACATGAACATTTTTTTTATTTATTTGCGTGAAAACGGAGTCACCTAGTGCAG,8070 fluorescence intensity (a.u.)
11,AGGTGCCATGAGCTTCTACGTTTTAATTGCATTCCCCGTACGGAGTCACCTAGTGCAG,9720 fluorescence intensity (a.u.)
12,TTGCCTGTGTTGGTGTATGTACGCCGTGTTTAGTTTATTGCGGAGTCACCTAGTGCAG,8820 fluorescence intensity (a.u.)
13,CCTAACATGGCCTGGCTACTTCTTCCACCATTCAACAGCACGGAGTCACCTAGTGCAG,9600 fluorescence intensity (a.u.)
14,ATTATTGCTTTTGAGTCGGACTTTGTTTTTTCGTTTTTACCGGAGTCACCTAGTGCAG,10600 fluorescence intensity (a.u.)
15,TCCACTGTCACAATCCTGAACCTGCCATGACATATCAGCTCGGAGTCACCTAGTGCAG,10000 fluorescence intensity (a.u.)
16,AACGGCCGACAGCCCTCTGCCCCAGAAGCCAACAATAACGCGGAGTCACCTAGTGCAG,8750 fluorescence intensity (a.u.)
17,TTTCTATTGCATTTTATCTCATCGTATCACATTCTGTTCTCGGAGTCACCTAGTGCAG,8080 fluorescence intensity (a.u.)
18,AATAATTTCATACTATTGGGAGTTGGGACCTTATCTTGCACGGAGTCACCTAGTGCAG,9350 fluorescence intensity (a.u.)
19,AACACACACACACACACACACACACACATTCAGACAGAACCGGAGTCACCTAGTGCAG,11400 fluorescence intensity (a.u.)
20,CGTTTTACCTTCCACAACCACAATCCACAGCCTTTGTACACGGAGTCACCTAGTGCAG,8880 fluorescence intensity (a.u.)
21,ACACCGATCTTCGCGACATGGACTACCTACCACCCTTTCTCGGAGTCACCTAGTGCAG,10100 fluorescence intensity (a.u.)

# An excerpt of the results above, as a working copy:
row,Sequence,binding signal
3,CTCTGCCGCGATCTCTCTCTCTCTCTCTCTCCTCCCATCCCGGAGTCACCTAGTGCAG,10400 fluorescence intensity (a.u.)
4,GCATTGTTTTTATTTAGCCTGTTTAATATTATAGCCAACTCGGAGTCACCTAGTGCAG,8720 fluorescence intensity (a.u.)
5,TATTACTCCCTTCGTATTTTAATGTATGACGCCGTTGACTCGGAGTCACCTAGTGCAG,8820 fluorescence intensity (a.u.)
